Measured values as given in PMC10442232.
These are yes or no findings as the source states them, for the method shown. Binding can be weak; no strength is given.

Chains of the proteins cited; added tags and fusions are not shown.
UniProt Q6P1X5: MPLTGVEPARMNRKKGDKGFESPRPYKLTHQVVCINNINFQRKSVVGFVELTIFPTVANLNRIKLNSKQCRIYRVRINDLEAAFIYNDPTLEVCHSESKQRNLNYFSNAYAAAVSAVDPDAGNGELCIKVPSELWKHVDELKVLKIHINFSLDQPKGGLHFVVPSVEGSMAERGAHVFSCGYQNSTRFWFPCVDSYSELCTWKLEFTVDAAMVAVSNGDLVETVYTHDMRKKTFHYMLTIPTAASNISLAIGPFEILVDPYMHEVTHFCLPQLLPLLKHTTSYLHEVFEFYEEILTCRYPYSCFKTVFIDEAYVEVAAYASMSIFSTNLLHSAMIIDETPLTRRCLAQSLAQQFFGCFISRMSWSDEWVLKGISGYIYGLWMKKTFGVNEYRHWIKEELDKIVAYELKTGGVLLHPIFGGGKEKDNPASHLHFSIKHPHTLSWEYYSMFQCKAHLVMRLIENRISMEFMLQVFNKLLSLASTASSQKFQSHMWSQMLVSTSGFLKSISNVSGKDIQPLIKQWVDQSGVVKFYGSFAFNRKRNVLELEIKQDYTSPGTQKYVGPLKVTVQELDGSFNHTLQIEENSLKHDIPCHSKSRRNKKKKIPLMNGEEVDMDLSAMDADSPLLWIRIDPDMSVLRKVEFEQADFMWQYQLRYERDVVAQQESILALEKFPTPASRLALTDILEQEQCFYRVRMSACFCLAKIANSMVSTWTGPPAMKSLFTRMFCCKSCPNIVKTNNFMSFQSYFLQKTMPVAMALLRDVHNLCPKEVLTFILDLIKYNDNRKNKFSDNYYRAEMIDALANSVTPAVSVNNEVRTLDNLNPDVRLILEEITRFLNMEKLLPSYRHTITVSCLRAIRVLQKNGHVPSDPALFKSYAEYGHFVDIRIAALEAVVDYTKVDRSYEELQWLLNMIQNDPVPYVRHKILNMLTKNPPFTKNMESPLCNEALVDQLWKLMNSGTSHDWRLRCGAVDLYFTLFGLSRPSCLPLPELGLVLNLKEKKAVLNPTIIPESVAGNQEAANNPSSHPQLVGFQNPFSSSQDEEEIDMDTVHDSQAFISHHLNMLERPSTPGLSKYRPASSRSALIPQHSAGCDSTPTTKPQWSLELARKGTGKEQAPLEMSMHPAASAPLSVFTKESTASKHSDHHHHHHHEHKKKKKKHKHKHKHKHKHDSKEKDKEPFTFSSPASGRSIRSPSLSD
UniProt Q15542: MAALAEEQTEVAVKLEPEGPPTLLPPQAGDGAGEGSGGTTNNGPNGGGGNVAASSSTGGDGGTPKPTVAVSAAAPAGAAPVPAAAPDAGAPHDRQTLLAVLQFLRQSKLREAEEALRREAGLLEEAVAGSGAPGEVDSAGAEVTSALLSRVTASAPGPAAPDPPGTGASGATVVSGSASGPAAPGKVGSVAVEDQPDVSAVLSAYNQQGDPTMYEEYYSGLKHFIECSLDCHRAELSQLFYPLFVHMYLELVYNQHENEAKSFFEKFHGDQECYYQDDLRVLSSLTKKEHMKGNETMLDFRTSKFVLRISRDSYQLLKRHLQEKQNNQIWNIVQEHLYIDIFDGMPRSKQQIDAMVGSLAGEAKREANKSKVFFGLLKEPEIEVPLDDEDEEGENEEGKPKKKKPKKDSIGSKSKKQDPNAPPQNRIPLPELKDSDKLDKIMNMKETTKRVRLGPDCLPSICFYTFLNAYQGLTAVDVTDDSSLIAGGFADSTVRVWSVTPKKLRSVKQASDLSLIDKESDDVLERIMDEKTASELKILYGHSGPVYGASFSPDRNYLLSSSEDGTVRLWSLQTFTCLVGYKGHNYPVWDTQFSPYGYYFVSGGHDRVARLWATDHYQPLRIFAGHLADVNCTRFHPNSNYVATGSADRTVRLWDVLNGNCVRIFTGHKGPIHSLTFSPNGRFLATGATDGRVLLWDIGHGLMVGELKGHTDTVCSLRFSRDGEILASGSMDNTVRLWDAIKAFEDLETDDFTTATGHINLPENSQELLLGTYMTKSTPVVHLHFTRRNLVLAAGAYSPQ
UniProt P20226: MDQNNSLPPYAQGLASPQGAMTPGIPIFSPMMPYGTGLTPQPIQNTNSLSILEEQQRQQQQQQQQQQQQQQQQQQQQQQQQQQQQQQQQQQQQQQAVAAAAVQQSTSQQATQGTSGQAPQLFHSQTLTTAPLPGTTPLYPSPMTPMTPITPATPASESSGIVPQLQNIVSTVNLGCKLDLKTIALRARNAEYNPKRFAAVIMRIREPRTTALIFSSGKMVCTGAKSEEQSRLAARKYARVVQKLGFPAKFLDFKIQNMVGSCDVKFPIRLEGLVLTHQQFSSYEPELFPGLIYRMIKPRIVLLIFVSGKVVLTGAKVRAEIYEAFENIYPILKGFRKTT
UniProt Q12962: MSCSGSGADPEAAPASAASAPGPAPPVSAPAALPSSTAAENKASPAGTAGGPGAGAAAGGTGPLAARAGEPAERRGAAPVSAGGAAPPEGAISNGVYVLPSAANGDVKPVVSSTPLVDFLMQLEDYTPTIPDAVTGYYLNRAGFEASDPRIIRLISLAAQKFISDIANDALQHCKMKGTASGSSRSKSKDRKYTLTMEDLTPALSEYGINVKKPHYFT
UniProt Q7Z7C8: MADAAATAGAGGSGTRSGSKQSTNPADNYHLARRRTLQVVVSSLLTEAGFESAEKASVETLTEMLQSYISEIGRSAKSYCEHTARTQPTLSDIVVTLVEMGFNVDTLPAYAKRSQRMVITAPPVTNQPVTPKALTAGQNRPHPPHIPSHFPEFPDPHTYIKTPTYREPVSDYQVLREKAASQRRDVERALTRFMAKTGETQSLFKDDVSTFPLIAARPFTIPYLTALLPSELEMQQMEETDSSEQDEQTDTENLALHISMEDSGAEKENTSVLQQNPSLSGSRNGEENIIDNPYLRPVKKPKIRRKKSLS
UniProt Q16514: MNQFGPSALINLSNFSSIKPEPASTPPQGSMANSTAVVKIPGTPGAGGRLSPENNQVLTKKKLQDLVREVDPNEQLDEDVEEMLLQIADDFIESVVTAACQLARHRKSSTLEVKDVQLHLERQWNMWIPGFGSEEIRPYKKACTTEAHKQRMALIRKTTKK
UniProt O00268: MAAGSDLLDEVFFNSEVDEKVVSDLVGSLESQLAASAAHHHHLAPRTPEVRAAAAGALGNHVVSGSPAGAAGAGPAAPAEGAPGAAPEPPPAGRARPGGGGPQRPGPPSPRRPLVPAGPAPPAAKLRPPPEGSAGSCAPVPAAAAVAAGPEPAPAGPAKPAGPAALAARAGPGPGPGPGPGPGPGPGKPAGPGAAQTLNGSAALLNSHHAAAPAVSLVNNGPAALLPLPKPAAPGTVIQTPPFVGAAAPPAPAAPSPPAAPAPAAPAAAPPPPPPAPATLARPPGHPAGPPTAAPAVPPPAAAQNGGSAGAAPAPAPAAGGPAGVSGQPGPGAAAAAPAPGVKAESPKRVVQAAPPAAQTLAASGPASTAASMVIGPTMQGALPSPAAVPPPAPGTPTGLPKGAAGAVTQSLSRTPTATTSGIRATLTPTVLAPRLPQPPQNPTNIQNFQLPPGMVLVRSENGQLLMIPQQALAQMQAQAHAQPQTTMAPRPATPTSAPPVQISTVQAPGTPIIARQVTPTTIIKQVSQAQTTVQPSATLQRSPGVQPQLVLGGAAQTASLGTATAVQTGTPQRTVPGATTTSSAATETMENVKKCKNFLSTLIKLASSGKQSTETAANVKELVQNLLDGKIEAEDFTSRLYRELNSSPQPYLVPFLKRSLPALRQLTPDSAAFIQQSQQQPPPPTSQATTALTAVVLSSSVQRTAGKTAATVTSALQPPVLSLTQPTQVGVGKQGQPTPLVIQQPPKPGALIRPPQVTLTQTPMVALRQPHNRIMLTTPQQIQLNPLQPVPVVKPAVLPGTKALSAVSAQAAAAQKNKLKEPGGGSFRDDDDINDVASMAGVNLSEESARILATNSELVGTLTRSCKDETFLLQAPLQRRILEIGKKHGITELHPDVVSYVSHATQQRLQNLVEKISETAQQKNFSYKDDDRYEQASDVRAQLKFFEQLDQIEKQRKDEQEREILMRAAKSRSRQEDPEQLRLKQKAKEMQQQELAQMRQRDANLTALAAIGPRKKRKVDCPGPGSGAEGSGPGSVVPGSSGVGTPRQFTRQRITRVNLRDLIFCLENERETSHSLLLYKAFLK
UniProt Q15545: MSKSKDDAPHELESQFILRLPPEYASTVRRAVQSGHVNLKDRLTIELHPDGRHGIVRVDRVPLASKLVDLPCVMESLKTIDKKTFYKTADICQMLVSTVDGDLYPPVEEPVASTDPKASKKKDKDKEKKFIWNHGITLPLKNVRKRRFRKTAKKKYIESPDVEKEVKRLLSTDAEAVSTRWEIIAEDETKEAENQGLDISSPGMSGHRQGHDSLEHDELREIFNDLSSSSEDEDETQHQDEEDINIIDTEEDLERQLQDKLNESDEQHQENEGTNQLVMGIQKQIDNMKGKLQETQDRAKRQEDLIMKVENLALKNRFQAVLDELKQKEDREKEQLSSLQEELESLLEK
UniProt P49848: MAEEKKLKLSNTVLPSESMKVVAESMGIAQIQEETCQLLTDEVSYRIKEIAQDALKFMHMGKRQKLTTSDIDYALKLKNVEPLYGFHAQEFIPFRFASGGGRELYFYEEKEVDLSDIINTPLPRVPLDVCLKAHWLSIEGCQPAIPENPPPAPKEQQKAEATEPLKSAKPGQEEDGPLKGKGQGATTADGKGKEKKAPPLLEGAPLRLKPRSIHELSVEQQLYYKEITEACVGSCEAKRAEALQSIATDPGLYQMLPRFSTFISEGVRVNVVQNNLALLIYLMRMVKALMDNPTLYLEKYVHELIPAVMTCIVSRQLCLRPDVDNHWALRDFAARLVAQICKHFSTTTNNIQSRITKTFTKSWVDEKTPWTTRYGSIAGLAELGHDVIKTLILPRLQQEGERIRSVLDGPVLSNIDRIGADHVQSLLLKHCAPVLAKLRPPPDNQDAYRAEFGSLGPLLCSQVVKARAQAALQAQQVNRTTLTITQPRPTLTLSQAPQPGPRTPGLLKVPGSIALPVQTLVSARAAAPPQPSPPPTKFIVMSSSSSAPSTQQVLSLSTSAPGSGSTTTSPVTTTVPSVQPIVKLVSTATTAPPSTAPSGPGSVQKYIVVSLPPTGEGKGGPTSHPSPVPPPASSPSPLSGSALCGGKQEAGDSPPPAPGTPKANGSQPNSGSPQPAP

What was measured:
GFP-TAF2 (human) = GFP-TAF2 (human) (UniProt Q6P1X5); experiment: RNA immunoprecipitation (GFP-RIP) with RT-qPCR; GFP-Trap agarose beads, polysome extracts of HeLa lines expressing N-terminally GFP-tagged TFIID subunits, cycloheximide, 4 h at 4 °C; the partner is scored through enrichment of its mRNA over mock IP (more than fourfold of the control PPIB)
GFP-TAF5 (human) = GFP-TAF5 (human) (UniProt Q15542); experiment: as above
GFP-TBP (human) = GFP-TBP (human) (UniProt P20226); experiment: as above
GFP-TAF10 (human) = GFP-TAF10 (human) (UniProt Q12962); experiment: as above
GFP-TAF8 (human) = GFP-TAF8 (human) (UniProt Q7Z7C8); experiment: as above
GFP-TAF12 (human) = GFP-TAF12 (human) (UniProt Q16514); experiment: as above
GFP-TAF4 (human) = GFP-TAF4 (human) (UniProt O00268); experiment: as above
[1] = biological target: TAF7 (human (endogenous in HeLa)) (UniProt Q15545); experiment: RNA immunoprecipitation (RIP) with RT-qPCR; antibody against the endogenous bait on protein G Dynabeads, HeLa polysome extract, cycloheximide (puromycin as control), overnight 4 °C, washes with 350 mM KCl; the partner is scored through enrichment of its mRNA (nascent chain on the ribosome)
[2] = biological target: TAF10 (human (endogenous in HeLa)) (UniProt Q12962); experiment: as above
[3] = biological target: TAF6 (human (endogenous in HeLa)) (UniProt P49848); experiment: as above

Measured: binding

TAF1 (from UniProt P21675-1)
binds: all assays above
